Measurements from US20110182926A1, “[…]” (priority 2008, published 2011).
These are yes or no findings as the source states them, for the method shown. Binding can be weak; no strength is given.

B1: HER2 position 657, 10-mer, w.t. (…) (peptide)
peptide: AVVGILLVVV
B2: HER2 position 444, 10-mer, w.t. (…) (peptide)
peptide: TLQGLGISWL
B3: HER2 position 661, 10-mer, w.t. (…) (peptide)
peptide: ILLVVVLGVV
B4: HER2 position 484, 10-mer, w.t. (…) (peptide)
peptide: QLFRNPHQAL

The binders below were run against HLA-A*0201 (iTopia Epitope Discovery System) (human) (assay: assay not named there (iTopia in Example 14)). Conditions: remark: other sources report otherwise.

binding, binds:
B1
B2
B3
B4
